Where a chain is given by its changes, count along the chain named. Names and notes keep the numbering of the source.
B1: Triple mutant C: Arrestin-3 triple mutant containing T299A, I386A and D298A when compared to human wt arrestin-3 (protein)
chain: MGEKPGTRVFKKSSPNCKLTVYLGKRDFVDHLDKVDPVDGVVLVDPDYLKDRKVFVTLTCAFRYGREDLDVLGLSFRKDLFIATYQAFPPVPNPPRPPTRLQDRLLRKLGQHAHPFFFTIPQNLPCSVTLQPGPEDTGKACGVDFEIRAFCAKSLEEKSHKRNSVRLVIRKVQFAPEKPGPQPSAETTRHFLMSDRSLHLEASLDKELYYHGEPLNVNVHVTNNSTKTVKKIKVSVRQYADICLFSTAQYKCPVAQLEQDDQVSPSSTFCKVYTITPLLSDNREKRGLALDGKLKHEAANLASSTIVKEGANKEVLGILVSYRVKVKLVVSRGGDVSVELPFVLMHPKPHDHIPLPRPQSAAPETDVPVDTNLIEFDTNYATDDDAVFEDFARLRLKGMKDDDYDDQLC
modifications: Arrestin-3 triple mutant C containing T299A, I386A and D298A
B2: Triple mutant B: Arrestin-3 triple mutant containing T299A, I386A and R166A when compared to human wt arrestin-3 (protein)
chain: B1 chain with R166A, A298D
modifications: Arrestin-3 triple mutant B containing T299A, I386A and R166A
B3: Triple mutant D: Arrestin-3 triple mutant containing T299A, I386A and R393A when compared to human wt arrestin-3 (protein)
chain: B1 chain with A298D, R393A
modifications: Arrestin-3 triple mutant D containing T299A, I386A and R393A

Test system: HEK293 cells
Assay: Expression level of GFP-fused arrestin-3 constructs by GFP fluorescence in a plate reader
Type: cell-based, human
Conditions: for GFP levels compared to WT (%): expression level in HEK293 cells, GFP fluorescence excited at 485 nm, averaged over two assays, normalized to WT

Molecule | Decrease in expression compared to WT arrestin-3 (expression in cells) | GFP levels compared to WT (%) | GFP levels compared to WT (%) (listed as double mutant A) | GFP levels compared to WT (%) (listed as triple mutant C)
Double mutant A: Arrestin-3 double mutant containing T299A and I386A when compared to human wt arrestin-3 | 74% | 36% | 36% | 
B1 |  | 55% |  | 55%
B2 |  | 35% |  | 
B3 |  | 26% |  | 

Source: US12522647B2, “Beta-arrestin mutants” (PAUL SCHERRER INSTITUT, priority 2019, dated 2026)
